For 11 compounds, T/C and survivor count results are on record in PubChem BioAssay AID286 (DTP/NCI, 2004).

This experiment relates to BDF1 mice, M5076 sarcoma ip, median survival T/C. Kind of experiment: NCI In Vivo Anticancer Drug Screen. Data for tumor model Sarcoma M5076 (intraperitoneal) in B6D2F1 (BDF1) mice. As to conditions: T/C endpoint: median survival time, higher T/C = longer survival. The procedure:
The antitumor activity of compounds was measured in mice bearing transplantable tumors. Survival or tumor size were measured and the results are expressed as the measurement made in the treated group (T) divided by the measurement made in the vehicle treated control group (C). The tumor model used in this assay is Sarcoma M5076 (intraperitoneal) in B6D2F1 (BDF1) mice

Where [1] appears, read: dose: 2.5 mg/kg/injection, schedule: Q04DX005 (ip), vehicle: sodium bicarbonate.
Setting [2] is: dose: 40.0 mg/kg/injection, schedule: Q04DX004 (ip), vehicle: sodium bicarbonate.
[3] abbreviates: dose: 40.0 mg/kg/injection, schedule: Q04DX005 (ip), vehicle: sodium bicarbonate.

The list shows only some results of the screen, not a fair sample: it is rich in T/C values a quarter to a half above the control, in often repeated tests (any T/C) and in doses without a T/C. Other doses and runs of a compound stand elsewhere. T/C: endpoint of the treated group in % of that of the vehicle group. Some doses have a count of surviving animals in place of a T/C: the source files T/C as zero there, which appears to mark a toxic dose or a test without result, not a measured value. Some survivor counts are full or nearly so, which does not show that the dose was tolerated: the source hardly ever lists a survival T/C far under the control, and the zero likely stands for such cases as well. Survivors were counted at the toxicity check, usually on the fifth day, unless a day is given; later deaths do not show. Schedule codes are those of the source, taken here to give the interval after Q, in days (D) or hours (H), and the number of doses after X. Some entries hold several experiments; the values are given in rising order. Where survival is the endpoint, this PubChem deposit counts one and a half times the control or more as active, and values a quarter to a half above the control carry no call in these data; other NCI protocols may use other cut-offs. Some T/C values carry the count of animals alive at the toxicity check (mostly the fifth day); without a count, all were alive then.

As to `CCC/C=C/C=C/C(=O)OC1/C(=C/C(=O)OC)CC2CC(C(C)O)OC(=O)CC(O)CC3CC(OC(C)=O)C(C)(C)C(O)(CC4C/C(=C/C(=O)OC)CC(/C=C/C(C)(C)C1(O)O2)O4)O3` (centres undefined), the T/C is 131 % of control (dose: 5.0 micrograms/kg/injection, schedule: Q01DX009 (ip), vehicle: saline + Tween-80 + alcohol); 140 % of control (dose: 5.0 micrograms/kg/injection, schedule: Q01DX009 (ip), vehicle: saline + alcohol); 148 % of control (dose: 10.0 micrograms/kg/injection, schedule: Q01DX009 (ip), vehicle: saline + Tween-80 + alcohol); 145 % of control [9 of 10 alive on day 9] (dose: 10.0 micrograms/kg/injection, schedule: Q01DX009 (ip), vehicle: saline + alcohol); 148 % of control (dose: 20.0 micrograms/kg/injection, schedule: Q01DX009 (ip), vehicle: saline + alcohol); 128 % of control [9 of 10 alive on day 9] (dose: 40.0 micrograms/kg/injection, schedule: Q01DX009 (ip), vehicle: saline + alcohol). Besides, the survivor count was 4 of 10 on day 9 (dose: 62.5 micrograms/kg/injection, schedule: Q01DX009 (ip), vehicle: saline + alcohol); 6 of 10 on day 9 (dose: 80.0 micrograms/kg/injection, schedule: Q01DX009 (ip), vehicle: saline + alcohol); 0 of 10 on day 9 (dose: 125.0 micrograms/kg/injection, schedule: Q01DX009 (ip), vehicle: saline + alcohol); 0 of 10 on day 9 (dose: 250.0 micrograms/kg/injection, schedule: Q01DX009 (ip), vehicle: saline + alcohol); 0 of 10 on day 9 (dose: 500.0 micrograms/kg/injection, schedule: Q01DX009 (ip), vehicle: saline + alcohol); 0 of 10 on day 9 (dose: 1000.0 micrograms/kg/injection, schedule: Q01DX009 (ip), vehicle: saline + alcohol).

On to `CC[N+](CC)(CC)CC`, for which the T/C was 134 % of control (dose: 3.89 mg/kg/injection, schedule: Q04DX005 (ip), vehicle: saline with Tween-80) and 128 % of control (dose: 6.48 mg/kg/injection, schedule: Q04DX005 (ip), vehicle: saline with Tween-80). Moreover, the survivor count (dose: 18.0 mg/kg/injection, schedule: Q04DX005 (ip), vehicle: saline with Tween-80) is 5 of 10 on day 17 and the survivor count (dose: 30.0 mg/kg/injection, schedule: Q04DX005 (ip), vehicle: saline with Tween-80) is recorded as 2 of 10 on day 17.

Take `CC1(C)N=C(N)N=C(N)N1c1ccc(CCCCc2ccc(S(=O)(=O)F)cc2Cl)c(Cl)c1`: under “dose: 90.0 mg/kg/injection, schedule: Q01DX009 (ip), vehicle: saline with Tween-80”, the survivor count is on record as 10 of 10.

With `O=NN(CCCl)C(=O)NC1CCCCC1`, the survivor count (dose: 24.0 mg/kg/injection, schedule: Q01DX005 (sc), vehicle: other) is 9 of 10 on day 9.

For the compound `C=C1C(=O)OC2C1C(OC(=O)/C(C)=C\C)CC(C)=C1C(=O)C3OC3(C)C12O` (centres undefined), the T/C (dose: 10.0 mg/kg/injection, schedule: Q01DX009 (ip), vehicle: saline + alcohol) is 125 and 126 % of control [9 of 10 alive on day 9]. The survivor count (dose: 20.0 mg/kg/injection, schedule: Q01DX009 (ip), vehicle: saline + alcohol) is recorded as 6 of 10 on day 9; the survivor count (dose: 40.0 mg/kg/injection, schedule: Q01DX009 (ip), vehicle: saline + alcohol) is recorded as 0 of 10 on day 9; the survivor count (dose: 80.0 mg/kg/injection, schedule: Q01DX009 (ip), vehicle: saline + alcohol) is recorded as 0 of 10 on day 9.

Consider `CN(Cc1cnc2nc(N)nc(N)c2n1)c1ccc(C(=O)N[C@@H](CCC(=O)O)C(=O)O)cc1`, for which the T/C reads like this: (dose: 1.1 mg/kg/injection, schedule: Q01DX009 (ip), vehicle: sodium bicarbonate) 139 % of control; (dose: 2.5 mg/kg/injection, schedule: Q04DX004 (ip), vehicle: sodium bicarbonate) 94, 100, 105, 106 % of control; under setting [1], 93 and 99 % of control; (dose: 5.0 mg/kg/injection, schedule: Q04DX004 (ip), vehicle: sodium bicarbonate) 91, 93, 93 [9 of 10 alive on day 9], 99 % of control; (dose: 5.0 mg/kg/injection, schedule: Q04DX005 (ip), vehicle: sodium bicarbonate, evaluated on day 75) 97, 98, 103, 110 % of control; (dose: 5.0 mg/kg/injection, schedule: Q04DX005 (ip), vehicle: sodium bicarbonate, evaluated on day 90) 95 % of control. Also, the T/C is, setting by setting: (dose: 10.0 mg/kg/injection, schedule: Q04DX004 (ip), vehicle: sodium bicarbonate) 90, 101, 105, 111 % of control; (dose: 10.0 mg/kg/injection, schedule: Q04DX005 (ip), vehicle: sodium bicarbonate, evaluated on day 75) 90, 91, 103, 114 % of control; (dose: 10.0 mg/kg/injection, schedule: Q04DX005 (ip), vehicle: sodium bicarbonate, evaluated on day 90) 106 % of control; (dose: 20.0 mg/kg/injection, schedule: Q04DX004 (ip), vehicle: sodium bicarbonate) 87, 103, 107, 115 % of control [9 of 10 alive on day 9]; (dose: 20.0 mg/kg/injection, schedule: Q04DX005 (ip), vehicle: sodium bicarbonate, evaluated on day 75) 89, 90 [8 of 10 alive on day 9], 94, 100 % of control; (dose: 20.0 mg/kg/injection, schedule: Q04DX005 (ip), vehicle: sodium bicarbonate, evaluated on day 90) 99 % of control. Further, the T/C reads like this: under setting [2], 92, 106, 123 % of control; under setting [3], 89, 97, 111 % of control. For the same compound, the survivor count under setting [1] is recorded as 10 of 10 on day 9; the survivor count (dose: 16.0 mg/kg/injection, schedule: Q04DX005 (ip), vehicle: sodium bicarbonate) is on record as 6 of 8 on day 17; the survivor count (dose: 32.0 mg/kg/injection, schedule: Q04DX005 (ip), vehicle: sodium bicarbonate) is on record as 0 of 8 on day 17; the survivor count under setting [2] is 8 of 10 on day 9; the survivor count under setting [3] was 1 of 10 on day 9 and 10 of 10.

Take `C/C(=N\NC(=S)N1CC2CCC(CC2)C1)c1nccs1`: the survivor count (dose: 50.0 mg/kg/injection, schedule: Q04DX004 (ip), vehicle: saline with Tween-80) was 8 of 10 on day 14; the survivor count (dose: 100.0 mg/kg/injection, schedule: Q04DX004 (ip), vehicle: saline with Tween-80) is 1 of 10 on day 14; the survivor count (dose: 200.0 mg/kg/injection, schedule: Q04DX004 (ip), vehicle: saline with Tween-80) is reported as 0 of 10 on day 14.

Turning to `CCC(O)CC1OC2(CCC1C)CC1OC(=O)/C=C\C(C)(O)C(O)C(C)C(O)C(OC3CC(OC)C(O)C(C)O3)C(O)C(C)(O)CCC/C=C/C3CC(C)COC3(O)CC(O2)C1C` (centres undefined), the survivor count (dose: 4.0 mg/kg/injection, schedule: Q01DX009 (ip), vehicle: saline + alcohol) was 0 of 10 on day 9.

`COc1cc(NCc2ccc3nc(N)nc(N)c3c2C)cc(OC)c1OC`: the T/C (dose: 7.5 mg/kg/injection, schedule: Q04DX005 (ip), vehicle: Klucel (hydroxypropylcellulose) (HPC)) is 141 % of control. Besides, the survivor count reads like this: (dose: 40.0 mg/kg/injection, schedule: Q01DX009 (ip), vehicle: Klucel (hydroxypropylcellulose) (HPC)) 0 of 5; (dose: 120.0 mg/kg/injection, schedule: Q04DX005 (ip), vehicle: Klucel (hydroxypropylcellulose) (HPC)) 9 of 10 on day 9.

Turning to `COC1=C(C)C(=O)C2=C(C1=O)C(CO)N1C(C#N)C3CC4C(C1C2N1CCOC41)N3C` (centres undefined), the survivor count (dose: 1000.0 micrograms/kg/injection, schedule: Q01DX009 (ip), vehicle: acid diluted with saline) is 5 of 10 on day 9.

In the case of `C[C@@]12C(=O)OC(=O)[C@]1(C)[C@H]1CC[C@@H]2O1`, the survivor count (dose: 1.0 mg/kg/injection, schedule: Q01DX009 (ip), vehicle: acetone) was 0 of 10 on day 9; the survivor count (dose: 2.0 mg/kg/injection, schedule: Q01DX009 (ip), vehicle: acetone) was 1 of 10 on day 9; the survivor count (dose: 4.0 mg/kg/injection, schedule: Q01DX009 (ip), vehicle: acetone) is on record as 0 of 10 on day 9. Further, the T/C was 126 % of control (dose: 125.0 micrograms/kg/injection, schedule: Q01DX009 (ip), vehicle: acetone) and 125 % of control (dose: 500.0 micrograms/kg/injection, schedule: Q01DX009 (ip), vehicle: acetone).
